# Source: PMC9402538, “Rational design of a sensitivity-enhanced tracer for discovering efficient APC–Asef inhibitors” (Nature Communications, 2022)
# By UniProt entry, the sequences of proteins in these tests, tags left out. Residues count along the entry.
# UniProt P25054, 303-739 limits assumed: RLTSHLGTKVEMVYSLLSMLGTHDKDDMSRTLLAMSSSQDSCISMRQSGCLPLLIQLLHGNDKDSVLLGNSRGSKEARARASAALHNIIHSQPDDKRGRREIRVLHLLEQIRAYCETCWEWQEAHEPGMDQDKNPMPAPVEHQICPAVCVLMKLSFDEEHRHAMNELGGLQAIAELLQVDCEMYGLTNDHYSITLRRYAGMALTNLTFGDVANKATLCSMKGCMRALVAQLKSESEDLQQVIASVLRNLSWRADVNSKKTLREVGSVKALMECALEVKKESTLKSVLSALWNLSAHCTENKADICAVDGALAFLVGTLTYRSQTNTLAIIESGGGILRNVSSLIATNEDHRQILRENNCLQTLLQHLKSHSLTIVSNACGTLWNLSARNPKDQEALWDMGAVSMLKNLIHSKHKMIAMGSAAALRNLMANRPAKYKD
# Biological target: APC (303–739) (Homo sapiens, UniProt P25054)
# Assay: FP competitive assay using tracer 7
# Assay type: binding
# Settings: log-transformed IC50, Fig. 2d
# Procedure: FITC-labeled tracer peptides were obtained from Changzhou Kanglong Biotech Ltd. (Changzhou, Jiangsu, China). […]. The FP signal changes upon tracer binding were measured after 1.5 h of incubation using a Synergy neo microplate reader (BioTek Instruments, Inc.) and plotted against the protein concentration. The corresponding EC50 values were generated by fitting the curves with a nonlinear regression model. […]. To make a working solution, APC (303–739) was diluted in FP buffer (50 mM HEPES, pH 7.5, 300 mM NaCl, 1 mM EDTA, 1 mM DTT). The diluted APC protein (91 μL) was combined with a serial dilution of peptides (4 μL) and incubated at room temperature for 1 h, followed by the addition of 5 μL of 400 nM tracer 7. The FP signals were measured after 1.5 h of incubation at room temperature using a Synergy neo microplate reader. Three controls were included on each plate, i.e., blank (without protein and tracer), 100% inhibition (free tracer only), and 0% inhibition (protein/tracer complex only) controls. All experiments were performed in triplicate. The IC50 values of peptides were calculated by nonlinear regression analysis using GraphPad Prism 7.0 software.
row,"Log IC50, Tracer7",Structure (SMILES)
1,0.312 μM,CC(C)C[C@H](NC(=O)[C@H](CO)NC(=O)[C@H](CCC(=O)O)NC(=O)CNC(=O)[C@H](C)NC(=O)c1ccco1)C(=O)N[C@@H](Cc1ccc(O)cc1)C(=O)NC1(c2ccccc2)CC1
2,0.238 μM,CC(C)C[C@H](NC(=O)[C@H](CO)NC(=O)[C@H](CCC(=O)O)NC(=O)CNC(=O)[C@H](C)NC(=O)c1ccco1)C(=O)N[C@@H](Cc1ccc(O)cc1)C(=O)NC(c1ccccc1)c1ccccc1

# The remaining lines, values behind:
row,Structure (SMILES),"Log IC50, Tracer7"
1,CC(C)C[C@H](NC(=O)[C@H](CO)NC(=O)[C@H](CCC(=O)O)NC(=O)CNC(=O)[C@H](C)NC(=O)c1ccccc1)C(=O)N[C@@H](Cc1ccc(O)cc1)C(N)=O,0.127 μM
2,CC(C)C[C@H](NC(=O)[C@H](CO)NC(=O)[C@H](CCC(=O)O)NC(=O)CNC(=O)[C@H](C)NC(=O)c1ccco1)C(=O)N[C@@H](Cc1ccc(O)cc1)C(=O)NC(c1ccccc1)c1ccccn1 (stereo partly shown),0.149 μM
3,CC(C)CC[C@H](NC(=O)[C@H](CO)NC(=O)[C@H](CCC(=O)O)NC(=O)CNC(=O)[C@H](C)NC(=O)OCc1ccccc1)C(=O)N[C@@H](Cc1ccc(O)cc1)C(=O)N[C@@H](CCC(=O)O)C(N)=O,0.088 μM
4,CC(C)C[C@H](NC(=O)[C@H](CO)NC(=O)[C@H](CCC(=O)O)NC(=O)CNC(=O)[C@H](CS)NC(=O)c1ccccc1)C(=O)N[C@@H](Cc1ccc(O)cc1)C(=O)N[C@@H](CCC(=O)O)C(N)=O,0.255 μM
5,CC(C)C[C@H](NC(=O)[C@H](CO)NC(=O)[C@H](CCC(=O)O)NC(=O)CNC(=O)[C@H](C)NC(=O)C12CC3CC(CC(C3)C1)C2)C(=O)N[C@@H](Cc1ccc(O)cc1)C(=O)N[C@@H](CCC(=O)O)C(N)=O,0.197 μM

# Structures were worked out from names or drawings and are uncertain.
